Measured values: publication PMC5714490

Key:
[1] = biological target: GFP::FZR-1 (N-terminal GFP-tagged FZR-1, strain OC190) (C. elegans); assay: co-IP; anti-GFP magnetic beads with C. elegans embryonic lysates (lysis buffer 50 mM HEPES pH 7.4, 1 mM EDTA, 1 mM MgCl2, 200 mM KCl, 10% glycerol, protease inhibitors, MG132), 1 hr at 4°, washed in PBST; blot with anti-SAS-5; wild-type N2 embryos as negative control
[2] = biological target: FZR-1::GFP (C-terminal GFP-tagged FZR-1, strain MTU10) (C. elegans); assay: as above

B1: SAS-5A (SAS-5 isoform A) (protein, UniProt Q20010 1-404)
chain: MNNYDDLPCSIYFKKPTVQEFVDQPRVFEDSEVPAFQEVLQLPQERTKPPVPSTQPIVAAVEVAKKKSCLSAPKPRKEPPSHPALRQKTVAFGKTVNVSQTVEGTSRNSKKVLASTMSAQNTTTTEEQAAENWRDAMKTELQTIRTEIQEETARRQEELNAQNLVKMQELMSNFFQKITIPKQQAIEPVEKDKENFHESPRQSRQQKPASKIASAREVIKRDGVIPPEALTIIEQRLRSDPMFRQQIDNVLADAECDANRAAYSPPPPMSEVRYGSGVNPALMRETLTVERSIRYDNGLASIDSRQWTNERRDNRAPDSYRTYEPDQPCHSLYQKGQSISYYPSEAAGKTTARNNRTGYYVEDSSDHEEDVVVNKRGQNYHEQAVPETPAERERRIREKYARRK
binding [1]: binds
binding [2]: binds

No constants are given. Whether binding was seen depends on the method and setting. Binding seen in cells or lysates may run through a third protein. Binding can be weak; no strength is given.
